In publication doi:10.1101/2023.05.29.23290174:
Results are given in words; binding and its absence hold for the method and conditions named. Some results given as binding are weak or reduced against the parent protein; the word gives no strength.

By UniProt entry, the sequences of proteins in these tests, tags left out. Where a name states a change or a piece, a line headed by the entry shows the natural chain unless it says otherwise. Chains listed by the source or under a name are the forms on record and can include a tag or linker.
UniProt P48436: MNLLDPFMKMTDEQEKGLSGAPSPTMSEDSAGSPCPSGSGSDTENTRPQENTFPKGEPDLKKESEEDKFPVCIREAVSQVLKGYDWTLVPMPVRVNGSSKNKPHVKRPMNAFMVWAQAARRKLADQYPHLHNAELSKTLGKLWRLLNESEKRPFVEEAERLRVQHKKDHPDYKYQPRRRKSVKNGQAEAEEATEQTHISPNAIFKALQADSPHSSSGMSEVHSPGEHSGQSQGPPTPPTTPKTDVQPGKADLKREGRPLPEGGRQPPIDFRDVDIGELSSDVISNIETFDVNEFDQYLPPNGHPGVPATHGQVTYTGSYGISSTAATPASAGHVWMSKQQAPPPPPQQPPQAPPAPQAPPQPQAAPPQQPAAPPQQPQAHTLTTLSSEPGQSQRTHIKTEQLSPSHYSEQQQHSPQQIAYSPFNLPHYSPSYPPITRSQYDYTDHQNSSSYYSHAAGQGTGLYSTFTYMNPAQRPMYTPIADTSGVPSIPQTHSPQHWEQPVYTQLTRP
SOX9 Ile73Thr variant (P48436, form named): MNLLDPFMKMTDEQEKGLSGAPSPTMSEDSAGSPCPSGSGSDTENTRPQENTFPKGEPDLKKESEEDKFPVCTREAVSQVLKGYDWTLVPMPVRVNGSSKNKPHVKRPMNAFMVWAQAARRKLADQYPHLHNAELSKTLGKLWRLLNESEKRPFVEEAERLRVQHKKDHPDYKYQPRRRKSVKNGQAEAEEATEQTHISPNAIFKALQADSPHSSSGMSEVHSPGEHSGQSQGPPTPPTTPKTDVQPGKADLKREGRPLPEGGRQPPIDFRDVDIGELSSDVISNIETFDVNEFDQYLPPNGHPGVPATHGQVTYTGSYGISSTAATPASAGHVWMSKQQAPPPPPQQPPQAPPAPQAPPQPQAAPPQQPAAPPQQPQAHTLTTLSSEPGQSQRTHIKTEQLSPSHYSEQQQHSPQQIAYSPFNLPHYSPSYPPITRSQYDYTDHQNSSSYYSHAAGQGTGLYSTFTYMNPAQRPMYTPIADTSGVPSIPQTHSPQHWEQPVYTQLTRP

Tests used:
[1] = molecular target: SOX9 (SRY-Box 9), wild type (human) (UniProt P48436); test: native gel or EMSA
[2] = molecular target: SOX9 Ile73Thr variant (human) (UniProt P48436); test: native gel or EMSA

| binding [1] | binding [2] | Substance |
| --- | --- | --- |
| binds |  | SOX9 (SRY-Box 9), wild type (from UniProt P48436 1-509) |
|  | no binding | SOX9 Ile73Thr variant (from UniProt P48436 1-509) |
